Laboratory results reported in PMC6466672.
Results are given in words; binding and its absence hold for the method and conditions named. A result given as binding can be weak or reduced; the word gives no strength. Tags and fused reporters may be left off the sequences shown.

Molecular target: T1, Swi1 fused to Gal4 DNA-binding domain (S. pombe) (UniProt Q9UUM2)
T1 sequence: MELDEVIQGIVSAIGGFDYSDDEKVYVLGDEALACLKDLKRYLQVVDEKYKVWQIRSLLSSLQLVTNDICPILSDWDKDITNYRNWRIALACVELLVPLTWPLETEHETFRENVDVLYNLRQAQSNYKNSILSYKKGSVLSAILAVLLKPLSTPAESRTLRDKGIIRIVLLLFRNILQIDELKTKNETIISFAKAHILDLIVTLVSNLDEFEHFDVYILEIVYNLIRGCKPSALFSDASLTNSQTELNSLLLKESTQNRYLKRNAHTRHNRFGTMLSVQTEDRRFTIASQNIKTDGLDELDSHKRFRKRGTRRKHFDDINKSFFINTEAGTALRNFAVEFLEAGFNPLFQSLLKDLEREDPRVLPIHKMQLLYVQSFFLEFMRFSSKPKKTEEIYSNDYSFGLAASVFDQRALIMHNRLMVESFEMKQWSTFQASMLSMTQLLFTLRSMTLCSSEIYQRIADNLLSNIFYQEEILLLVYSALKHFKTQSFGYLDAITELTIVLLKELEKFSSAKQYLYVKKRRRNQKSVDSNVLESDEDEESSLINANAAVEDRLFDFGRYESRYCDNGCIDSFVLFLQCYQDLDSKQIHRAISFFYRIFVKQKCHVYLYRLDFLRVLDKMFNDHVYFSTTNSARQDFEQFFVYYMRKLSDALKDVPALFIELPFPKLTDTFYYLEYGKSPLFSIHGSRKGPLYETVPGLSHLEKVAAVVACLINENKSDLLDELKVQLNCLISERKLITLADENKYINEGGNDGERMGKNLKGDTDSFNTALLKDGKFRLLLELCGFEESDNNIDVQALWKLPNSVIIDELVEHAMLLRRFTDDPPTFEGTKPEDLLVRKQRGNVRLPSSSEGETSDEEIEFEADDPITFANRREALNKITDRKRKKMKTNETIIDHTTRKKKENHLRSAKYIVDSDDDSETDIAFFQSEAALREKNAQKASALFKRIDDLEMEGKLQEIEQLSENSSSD
Assay: two-hybrid; S. cerevisiae Y190 reporter strain; Gal4-DBD (pAS404) and Gal4-AD (pGAD424) fusions; growth in the presence of 3-aminotriazole (25 mM in the screen)

Q: Sbp6-AD (Swi1-binding protein 6) was tested. Which binding did it give?
A: binds
